The structures given here were assigned with low confidence; some may be wrong.

The values below come from patent US20120220577A1, “GLYCINE B ANTAGONISTS” (Merz Pharma GmbH & Co KgaA, priority 2009, published 2012).

For assay [1], the target named is T1, NMDA receptor glycine B site (Rattus norvegicus, UniProt P35439). The assay is described as follows: Calcium FLIPR studies, rat cortical neurons (NMDA/D-Serine induced intracellular calcium). The conditions noted are these: read-out: NMDA-FLIPR-rCTX-NAM - IC50, stimulation with 30 μM NMDA and 1 μM D-Serine, antagonist pre-incubated 10 min. For orientation: A change in cytosolic calcium serves as a functional read-out for many receptors and channels.

In assay [2] the target is glycine binding pocket of the NMDA receptor (Rattus norvegicus, UniProt P35439). Kind of assay: [3H]MDL-105,519 displacement studies (rat cortical membranes). The conditions noted are these: read-out: NMDA-MDL 105519-r-CTX - IC50; displacement of 2 nM [3H]-MDL-105,519, rat cortical membranes.
Assay [3] has as its target T1, NMDA receptor glycine B site. Kind of assay: Whole cell patch-clamp recordings, rat hippocampal neurons (NMDA/D-Serine currents). The format is cell-based. The following applies: read-out: NMDA-PC-r-HIC-NAM - IC50, NMDA 200 μM + D-Serine 1 μM, -70 mV. On the procedure: Antagonistic potencies of the test compounds are functionally evaluated using electrophysiological whole cell patch-clamp recordings and/or fluorometric intracellular Ca^2+-imaging (FLIPR) screens.
Cell preparation is performed as described by Parsons, et al. (Neuropharmacology, 1998, 37(6), 719-727). The female Sprague-Dawley rat is anaesthetised by placing in a saturated CO2-euthanasia chamber under further quiet CO2-influx. Under these conditions the rat loses consciousness after a few seconds and is then sacrificed by cervical dislocation. After opening the abdominal cavity, embryos (E20) are removed and stored in ice cold Ca^2+- and Mg^2+-free Hank's Buffered Salt Solution (pH 7.3), containing 4 g/l glucose (HBSS-CMF). Hippocampi are then isolated from the brains of at least 8 embryos after decapitation, transferred into ice cold HBSS-CMF and washed 3 to 4 times.
Hippocampi are pre-incubated for 8 min with a 0.66% trypsin (Sigma-Aldrich) and 0.1% (20 U/ml) DNAase solution (Sigma-Aldrich) in Ca^2+-free Phosphate Buffered Saline (PBS-CF) and washed 3 times with HBSS-CMF. Cells are then mechanically dissociated by trituration in a PBS-CF solution containing 0.05% (10 U/ml) DNAase and 0.3% of the trypsin inhibitor ovomucoid (all from Sigma-Aldrich). […]

The IC50 is the point on the concentration scale where inhibition reaches its midpoint. For the molecule `O=C(O)COc1cccc(OCC(=O)O)c1NC(=O)COc1cc(C(=O)O)cc2cc(Cl)cc(Cl)c12`, the results for the IC50 in assay [1], in assay [2] and in assay [3] were 330 nM, 43 nM and 179 nM, respectively.
